# This is one part of the list.
# B1: YghJ (Escherichia coli), E3PJ90 (protein)
# chain: MNKKFKYKKSLLAAILSATLLAGCDGGGSGSSSDTPPVDSGTGSLPEVKPDPTPNPEPTPEPTPDPEPTPEPIPDPEPTPEPEPEPVPTKTGYLTLGGSQRVTGATCNGESSDGFTFKPGEDVTCVAGNTTIATFNTQSEAARSLRAVEKVSFSLEDAQELAGSDDKKSNAVSLVTSSNSCPANTEQVCLTFSSVIESKRFDSLYKQIDLAPEEFKKLVNEEVENNAATDKAPSTHTSPVVPVTTPGTKPDLNASFVSANAEQFYQYQPTEIILSEGRLVDSQGYGVAGVNYYTNSGRGVTGENGEFSFSWGEAISFGIDTFELGSVRGNKSTIALTELGDEVRGANIDQLIHRYSTTGQNNTRVVPDDVRKVFAEYPNVINEIINLSLSNGATLGEGEQVVNLPNEFIEQFNTGQAKEIDTAICAKTDGCNEARWFSLTTRNVNDGQIQGVINKLWGVDTNYKSVSKFHVFHDSTNFYGSTGNARGQAVVNISNAAFPILMARNDKNYWLAFGEKRAWDKNELAYITEAPSIVRPENVTRETASFNLPFISLGQVGDGKLMVIGNPHYNSILRCPNGYSWNGGVNKDGQCTLNSDPDDMKNFMENVLRYLSNDRWLPDAKSSMTVGTNLETVYFKKHGQVLGNSAPFAFHKDFTGITVKPMTSYGNLNPDEVPLLILNGFEYVTQWGSDPYSIPLRADTSKPKLTQQDVTDLIAYMNKGGSVLIMENVMSNLKEESASGFVRLLDAAGLSMALNKSVVNNDPQGYPDRVRQRRSTPIWVYERYPAVDGKPPYTIDDTTKEVIWKYQQENKPDDKPKLEVASWQEEVEGKQVTQFAFIDEADHKTPESLAAAKQRILDAFPGLEVCKDSDYHYEVNCLEYRPGTDVPVTGGMYVPQYTQLDLSADTAKAMLQAADLGTNIQRLYQHELYFRTNGRQGERLNSVDLERLYQNMSVWLWNETKYRYEEGKEDELGFKTFTEFLNCYTNNAYVGTQCSAELKKSLIDNKMIYGEESSKAGMMNPSYPLNYMEKPLTRLMLGRSWWDLNIKVDVEKYPGVVNTNGETVTQNINLYSAPTKWFAGNMQSTGLWAPAQQEVSIESKSTVPVTVTVALADDLTGREKHEVSLNRPPRVTKTYDLKANDKVTFKVPYGGLIYIKGDSKEVQSADFTFTGVVKAPFYKDGKWQHDLNSPAPLGELESASFVYTTPKKNLNASNYTGGLEQFANDLDTFASSMNDFYGRDSEDGKHRMFTYKNLPGHKHRFANDVQISIGDAHSGYPVMNSSFSPNSTTLPTTPLNDWLIWHEVGHNAAETPLTVPGATEVANNVLALYMQDRYLGKMNRVADDITVAPEYLEESNGQAWARGGAGDRLLMYAQLKEWAEKNFDIKKWYPDGTPLPEFYSEREGMKGWNLFQLMHRKARGDEVSNDKFGGKNYCAESNGNAADTLMLCASWVAQTDLSEFFKKWNPGANAYQLPGASEMSFEGGVSQSAYNTLASLDLPKPEQGPETINQVTEHKMSAE
# Assays:
# Experiment in all cases: glycan array binding signal (z-score within array); higher = stronger binding
# Conditions in all cases: glycan notation: IUPAC condensed, linker removed
# [1] = molecular target: Gal(b1-3)GlcNAc(b1-6)[Gal(b1-3)]GalNAc
# Summary of the method: (§1)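 From the Consortium for Functional Glycomics database, 3228 arrays were curated, keeping only those whose protein sequence was available. Binding is given as a within-array Z-score averaged across arrays sharing a protein sequence and across linkers. Negative Z-scores can be read as non-binding.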
# Gal(b1-3)GlcNAc6S = molecular target: Gal(b1-3)GlcNAc6S
# Summary of the method: as §1
# [2] = molecular target: Gal(b1-3)[Fuc(a1-4)]GlcNAc
# Summary of the method: as §1
# [3] = molecular target: Gal(b1-3)[Fuc(a1-4)]GlcNAc(b1-2)Man
# Summary of the method: as §1
# [4] = molecular target: Gal(b1-3)[Fuc(a1-4)]GlcNAc(b1-2)Man(a1-3)[Gal(b1-3)[Fuc(a1-4)]GlcNAc(b1-2)Man(a1-6)]Man(b1-4)GlcNAc(b1-4)[Fuc(a1-6)]GlcNAc
# Summary of the method: as §1
# [5] = molecular target: Gal(b1-3)[Fuc(a1-4)]GlcNAc(b1-3)Gal(b1-3)[Fuc(a1-4)]GlcNAc
# Summary of the method: as §1
# [6] = molecular target: Gal(b1-3)[Fuc(a1-4)]GlcNAc(b1-3)Gal(b1-4)[Fuc(a1-3)]GlcNAc
# Summary of the method: as §1
# [7] = molecular target: Gal(b1-3)[Fuc(a1-4)]GlcNAc(b1-6)GalNAc
# Summary of the method: as §1
# [8] = molecular target: Gal(b1-3)[GlcNAc(b1-6)]GalNAc
# Summary of the method: as §1
# [9] = molecular target: Gal(b1-3)[Neu5Ac(a2-6)]GalNAc
# Summary of the method: as §1
# [10] = molecular target: Gal(b1-3)[Neu5Ac(a2-6)]GlcNAc(b1-4)Gal(b1-4)Glc
# Summary of the method: as §1
# [11] = molecular target: Gal(b1-3)[Neu5Ac(b2-6)]GalNAc
# Summary of the method: as §1
# Gal(b1-4)Gal = molecular target: Gal(b1-4)Gal
# Summary of the method: as §1
# [12] = molecular target: Gal(b1-4)GalNAc(a1-3)[Fuc(a1-2)]Gal(b1-4)GlcNAc
# Summary of the method: as §1
# [13] = molecular target: Gal(b1-4)GalNAc(b1-3)[Fuc(a1-2)]Gal(b1-4)GlcNAc
# Summary of the method: as §1
# Gal(b1-4)Glc = molecular target: Gal(b1-4)Glc
# Summary of the method: as §1
# Gal(b1-4)Glc6S = molecular target: Gal(b1-4)Glc6S
# Summary of the method: as §1
# Gal(b1-4)GlcNAc = molecular target: Gal(b1-4)GlcNAc
# Summary of the method: as §1
# [14] = molecular target: Gal(b1-4)GlcNAc(a1-6)Gal(b1-4)GlcNAc
# Summary of the method: as §1
# Gal(b1-4)GlcNAc(b1-2)Man = molecular target: Gal(b1-4)GlcNAc(b1-2)Man
# Summary of the method: as §1
# [15] = molecular target: Gal(b1-4)GlcNAc(b1-2)Man(a1-3)Man(b1-4)GlcNAc(b1-4)GlcNAc
# Summary of the method: as §1
# [16] = molecular target: Gal(b1-4)GlcNAc(b1-2)Man(a1-3)[Gal(b1-4)GlcNAc(b1-2)Man(a1-6)]Man(b1-4)GlcNAc(b1-4)GlcNAc
# Summary of the method: as §1
binder,measurement,setting,value
B1,glycan array binding signal (z-score),[1],0.75
same,glycan array binding signal (z-score),Gal(b1-3)GlcNAc6S,0.928
same,glycan array binding signal (z-score),[2],0.039
same,glycan array binding signal (z-score),[3],0.715
same,glycan array binding signal (z-score),[4],0.471
same,glycan array binding signal (z-score),[5],-1.57
same,glycan array binding signal (z-score),[6],0.826
same,glycan array binding signal (z-score),[7],-0.237
same,glycan array binding signal (z-score),[8],-0.212
same,glycan array binding signal (z-score),[9],-0.102
same,glycan array binding signal (z-score),[10],-0.273
same,glycan array binding signal (z-score),[11],0.35
same,glycan array binding signal (z-score),Gal(b1-4)Gal,0.832
same,glycan array binding signal (z-score),[12],-1.43
same,glycan array binding signal (z-score),[13],-0.638
same,glycan array binding signal (z-score),Gal(b1-4)Glc,0.319
same,glycan array binding signal (z-score),Gal(b1-4)Glc6S,-0.439
same,glycan array binding signal (z-score),Gal(b1-4)GlcNAc,-0.195
same,glycan array binding signal (z-score),[14],0.239
same,glycan array binding signal (z-score),Gal(b1-4)GlcNAc(b1-2)Man,-0.325
same,glycan array binding signal (z-score),[15],1.19
same,glycan array binding signal (z-score),[16],-0.174

# Laid out differently: results already given.
binder	measurement	setting	value
B1	glycan array binding signal (z-score)	[6]	0.826
same	glycan array binding signal (z-score)	[7]	-0.237

# Source: the supplement of paper PMC8728848
